For part of these data: No signal at the amounts used counts as a negative. For part of these data: Tags and fusion partners may be left off the protein sequences shown. For part of these data: A weaker result is weaker than the reference pair of the same experiment.
Columns and labels:
Experiment in all cases: agarose EMSA
[1] = system: mouse NF-YA minimal domain + L1L/AtNF-YB6 HFD + AtNF-YC3 HFD; conditions: shifted, lower affinity than mouse NF-Y, 32P EMSA: 20 mM Hepes pH 7.9, 50 mM NaCl, 5% glycerol, 5 mM MgCl2, 5 mM b-ME, 20 C, Cy5 agarose EMSA: 20 nM DNA, 20 mM Tris pH 7.5, 50 mM NaCl, 0.5 mM EDTA, recombinant protein, label: 5'-Cy5
[2] = system: mouse NF-YA minimal domain + LEC1/AtNF-YB9 HFD + AtNF-YC3 HFD; conditions: shifted, lower affinity than mouse NF-Y, 32P EMSA: 20 mM Hepes pH 7.9, 50 mM NaCl, 5% glycerol, 5 mM MgCl2, 5 mM b-ME, 20 C, Cy5 agarose EMSA: 20 nM DNA, 20 mM Tris pH 7.5, 50 mM NaCl, 0.5 mM EDTA, recombinant protein, label: 5'-Cy5
[3] = biological target: T1, LEC1/AtNF-YB9 HFD (Arabidopsis thaliana) (UniProt Q9SFD8); conditions: AtNF-YB9 alone, 32P EMSA: 20 mM Hepes pH 7.9, 50 mM NaCl, 5% glycerol, 5 mM MgCl2, 5 mM b-ME, 20 C, Cy5 agarose EMSA: 20 nM DNA, 20 mM Tris pH 7.5, 50 mM NaCl, 0.5 mM EDTA, recombinant protein, residues 56-148, protein details: N-terminal 6His, label: 5'-Cy5
T1 sequence (looked up): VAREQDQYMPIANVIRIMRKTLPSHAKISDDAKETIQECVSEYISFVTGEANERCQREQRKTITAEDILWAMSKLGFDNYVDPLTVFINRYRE

Chains of the proteins cited; added tags and fusions are not shown. Lines headed by an entry give the natural chain unless they say otherwise; changes in a name come on top. A line that says so, or that is headed by a name, gives the form on record, which may keep a tag or linker.
mouse NF-YA minimal domain + L1L/AtNF-YB6 HFD + AtNF-YC3 HFD, one chain, as listed by the source, chain 3 of 3: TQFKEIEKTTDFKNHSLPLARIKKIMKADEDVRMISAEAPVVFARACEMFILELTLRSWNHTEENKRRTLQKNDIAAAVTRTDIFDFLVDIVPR
mouse NF-YA minimal domain + L1L/AtNF-YB6 HFD + AtNF-YC3 HFD, one chain, as listed by the source, chain 1 of 3: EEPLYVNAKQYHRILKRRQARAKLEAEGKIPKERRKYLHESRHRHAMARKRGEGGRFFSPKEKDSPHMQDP
mouse NF-YA minimal domain + L1L/AtNF-YB6 HFD + AtNF-YC3 HFD, one chain, as listed by the source, chain 2 of 3: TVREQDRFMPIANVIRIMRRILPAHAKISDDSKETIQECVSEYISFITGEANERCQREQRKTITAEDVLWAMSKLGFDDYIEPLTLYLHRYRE

## CTTCTGAGCCAATCACCGAGCTCGATGAGGC (double strand) [HSP70 CCAAT 31 bp probe]
[1]
  binding result: binds more weakly
[2]
  binding result: binds more weakly
[3]
  binding result: no binding

Source: article PMC3422339
